According to patent US20200329707A1, “PYRAZOLAMIDE COMPOUND HAVING INSECTICIDAL ACTIVITY AND USE THEREOF” (JIANGSU FLAG CHEMICAL INDUSTRY CO., LTD., priority 2017, published 2020):
Some of these results come from one statement about several compounds together.

System: Helicoverpa armigera
Assay: Insecticidal effect on Helicoverpa armigera, immersed cabbage leaf discs in 24-well plate
Assay type: in vivo
Conditions: 40 ppm reagent solution; deaths in 3 days
Experimental: The test reagents were all individually dissolved in a mixed solvent of acetone:[…] (1:1) to give a 1000 mg/L solution. 1% Tween-80 was added as an emulsifier to each solution. These solutions were then diluted with 1% Tween-20 solution in water to give desired concentrations of test solutions. An aqueous solution containing 1% Tween-20 was used as a control.
Third instar larvae of Helicoverpa armigera were used, and the insecticidal effect test was carried out by feeding with leaves immersed with various compounds. The cabbage leaves that had not been exposed to insecticides were punched into leaf discs having a diameter of […]. The leaf discs were immersed in each compound solution for 30 s. Then the leaf discs were placed on absorbent paper and air-dried until there were no obvious water stains on the leaf discs. A washed 24-well plate was prepared, and about 1 ml of water agar medium was fed to each well. After solidification, the treated leaf discs were placed on the medium in the 24-well plate, and then 1 3rd-instar larva of Helicoverpa armigera was inoculated into each well. The 24-well plate was covered after inoculation, placed in an insect cultivating chamber at 25° C. with a 16-h-light/8-h-dark photoperiod. The number of deaths in 3 days was investigated, and the mortality was calculated.

| SMILES | mortality of 3rd instar larvae of Helicoverpa armigera [%] |
| --- | --- |
| Cc1cc(Cl)cc(C(=O)NC(C)(C)C(N)=O)c1NC(=O)c1cc(Br)nn1-c1ncccc1Cl [Compound 1.1, N-(2-N-((1-amino-2-methyl-1-acylpropan-2-yl)-formyl)-4-chloro-6-methylphenyl)-1-(3-chloropyridin-2-yl)-3-bromo-1H-pyrazol-5-carboxamide] | ≥ 80 |
| Cc1cc(Cl)cc(C(=O)N(C)C(C)(C)C(N)=O)c1NC(=O)c1cc(Br)nn1-c1ncccc1Cl [Compound 1.3, N-methyl-N-(2-N-((1-amino-2-methyl-1-acylpropan-2-yl)-formyl)-4-chloro-6-methylphenyl)-1-(3-chloropyridin-2-yl)-3-bromo-1H-pyrazol-5-carboxamide] | ≥ 80 |
